Data: patent US9164099B2, “Site-specific labeling of affinity tags in fusion proteins” (LIFE TECHNOLOGIES CORPORATION, priority 2002, dated 2015)
Some entries share one result that the patent states for a list of compounds. For part of these data: At least one structure is not confirmed: it was looked up by name or label, or the drawing left a doubt.

Columns and labels:
[1] = tested on: poly-histidine affinity tag containing fusion proteins; experiment: Detection of poly-histidine affinity tag fusion proteins in SDS-polyacrylamide gels; assay type: binding; conditions: staining solution, gel, in whole cell lysates
[2] = tested on: oligohistidine-tagged fusion proteins (the a subunit of Escherichia coli ATPase and porin); experiment: Detection of poly-histidine affinity tag fusion proteins on a microarray; assay type: binding; conditions: 10 μM compound, 50 mM PIPES pH 6.5, HydroGel slides
Description: Purified oligohistidine-tagged fusion proteins (the a subunit of Escherichia coli ATPase and porin), as well as control proteins (bovine serum albumin and ovalbumin) are arrayed from a source plate (384 well plate) concentration of 0.468 μg/ml-0.240 mg/ml in water, onto HydroGel coated slides (Perkin Elmer), using the BioChip Arrayer™ (Perkin Elmer). The BioChip Arrayer™ utilizes a PiezoTip™ Dispenser consisting of 4 glass capillaries. Proteins are dispensed from the PiezoTip™ by droplets […] in volume to create array spots ˜200 microns in diameter with a 500 micron horizontal and vertical pitch (pitch=center to center spacing of spots). Proteins are arrayed in duplicate in four rows, with 10 dilution points. The resulting concentration range of the array is 166.5 pg/spot-0.325 pg/spot. For detection of oligohistine-tagged proteins, slides are incubated for 45 minutes on a rotator in 50% ethanol/7% acetic acid and then fixed overnight in fresh fixative solution to ensure complete elimination of SDS. Microarrays are next washed 3 times for 20 minutes each in deionized water. The microarrays are then incubated in a staining solution containing 10 μM Compound 2 or Compound 15; 50 mM PIPES at pH 6.5 for 45-90 minutes. Afterwards, the microarrays are washed 2 to 4 times for 20 minutes each in deionized water. […]

Molecule	detection limits of poly-histidine affinity tag containing fusion proteins [1] [ng]	Detection sensitivity [2]
4,4-difluoro-4-bora-3a,4a-diaza-s-indacene-3,5-bis((6-(propionyl)amino-2-bis(carboxymethyl)amino)hexanoic acid), hexatriethylammonium salt [Compound 2]	25 to 65	less than 20 pg
CCN(CC)CC.CCN(CC)CC.CCN(CC)CC.CCN(CC)CC.Cc1c(CC(=O)NCCCC[C@@H](C(=O)O)N(CC(=O)O)CC(=O)O)c(=O)oc2cc(N)c(S(=O)(=O)O)cc12 [Compound 1, 7-amino-3-(1-carboxy-1-(bis(carboxymethyl)amino)-5-(acetylamino))pentyl-4-methylcoumarin-6-sulfonic acid, tetratriethylammonium salt]	25 to 65	
